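Luminescence from an EWS-FLI1 target-promoter (NR0B1) reporter, set against a CMV-promoter reporter, two days after silencing single genes in TC32 Ewing sarcoma cells.
Each siRNA was applied at 20 nM.
A z-score of the log NR0B1-over-CMV signal, less the median of siRNAs with the same seed; more negative means a stronger specific loss of the NR0B1 reporter.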

The strongest results of the screen are mostly left out here.
Sequences are the guide (antisense) strand, without overhang.

Sequence | gene | seed-corrected z-score
UCUGUAUCAUGUGCUAUCC | GAN | -0.1408
UCCCGAUGAACUUGGAUCC | DPEP2 | -0.09095
UGCUUCAAAAUUUCGAGUG | CHD4 | 0.6163
UUUGGUGUAAGCACGGUAC | ELOVL7 | -0.4268
UGCAAGCCCAUUGAGAUUG | DLX3 | -0.8043
UAUAUGUCAGGACAUAGUC | DSC2 | 0.02895
UCAUUUGCACCGUGCAUGC | TACC3 | -1.231
UUUGGAUCAUCAUCUCAGG | UBQLN2 | 1.277
AAAGAGCCCAUCAGUUUGC | URB1-AS1 | 0.8122
UACACCAUCGGGUUUAAUG | OR13G1 | 0.09147
AUAUUUGCUGUAAUCGCUC | KRT12 | -0.9832
UUGGUUACCACUAUCACCA | PRR4 | -0.6265
UCUUCGGAAACUGCAAAGC | HELB | -0.184
UAGUCAUUUGGUUCUAUUG | GGCT | 0.3177
AAUAUUUAUAGUGUAGGAC | PCDHB14 | 1.423
AUAUCUCCAGGCUUGAUUG | UFD1L | 1.637
AGUUGUAACAGAAUCUGUG | SERPINA11 | 0.2744
GACGCUACUGACUCUGGUG | KRT86 | 0.7345
UUGGAUACAAUCAUGAAGC | GCLM | 0.4252
UCACGAUCCAGUCUCUUGG | CDH7 | -1.638
AAAUCUGCACCACCUAUUC | LEMD3 | -1.64
UUCAGUCCUGGAGUGGAGC | NUDT8 | 0.4747
UCAGCUGCAGCUAAUUUCC | PPP1R2 | -0.03958
UAGACAAUCUGGGUCCUCU | NELFE | -0.09886
UUCCUGCACGUUUUUAGCC | LOC339902 | -0.469
AGUAGAAGUAGUCACCUCC | SRXN1 | 1.699
ACUCACACCACCAAUGAGG | DEFA4 | -0.3646
UUAGCAAUUACAGGUAUAG | DUS4L | 0.06587
UUCCCGAUACUGUUGCUGG | SLC7A4 | -0.3181
UGGAUUUUCACAAUAAGCA | RAB27B | 0.7402
UUCCGAACAACAGCUUCGG | USP53 | 0.3419
AUAGGUGUAGCCUUCUGAC | TMEM176A | -0.952
UCAUUCUUAACAAUAUUGG | FOLH1B | 0.3141
UAACAAGUCUCGAUUAGCC | ANXA7 | -0.03872
UACAAACUUGGUUCAAUUC | BACE2 | 0.3239
AUUGCGAAGAAAAUGGACC | DDX55 | -0.3144
AAUAUCAUAGACACGAUCC | BRS3 | 0.0412
UGUGCUGGUAUCUAGGUGC | H2AFX | 0.5574
AUACUUGCGCGAGGUCUCC | TOR4A | -0.6137
UAGACGGUCAUCACCUUCC | CIT | 0.1619
AUUGUUCCUUCAUAGAAUC | RPL37P23 | 1.512
UCGUAGAACAUGAACAUUC | FASTKD2 | 0.9184
UUAAUGUCCAUGGACUACC | ANGPTL3 | -0.1678
AUUCUGAUCAGCUGCUUCG | AKAP7 | -0.3767
UCCAGGUCUAAGUACACCU | CHRNB1 | -0.7638
UUGGUUUGGAUCCACAUCC | LOC729126 | 0.6325
UAGAUUAUUGGGUUCAGAG | OR4K2 | -0.1046
AGGUUGAUCAUGUAGAUGG | GPR55 | -1.339
AGUUGUAAUCCUAUGGUCC | HOXA1 | -0.2268
UGUCAUUUGACUCUGAAGC | PPFIBP1 | 0.5941
UCCAGUGAACUCUCCAGGC | APBB3 | 0.7712
UGAGUAGCAAGUCUGUUAG | GSG1 | -0.7541
UUUCUGACAGGUCCUUUGC | TMOD2 | -0.4859
UGUGAUACCGCUCCUGUCC | RAB5C | -0.33
UGAUUGUUUUCGUAUAUGC | ELF2P4 | 1.164
UCCAAUGCUGCUUCCACCC | MRPS26 | 0.01141
UGUACUCAGAAGAACCUCC | SMC1A | 0.06392
UUUUCGUCGACUGCAUUUU | GTPBP1 | -0.4733
AUAGGAUUUUUGAUGAUGC | BAZ2A | 0.08806
AAAUAGAUCAGUUGCUUGG | SLCO2A1 | -0.131
UUGGGUUAGUCCAAUGUCC | EFHB | 0.6394
AUCAUUAGAACUGUCAUUC | SRRT | -1.048

Some entries from above, unchanged:

Sequence,gene,seed-corrected z-score
UGUACUCAGAAGAACCUCC,SMC1A,0.06392
UGGAUUUUCACAAUAAGCA,RAB27B,0.7402
UUAAUGUCCAUGGACUACC,ANGPTL3,-0.1678
UGUGAUACCGCUCCUGUCC,RAB5C,-0.33
AUUGCGAAGAAAAUGGACC,DDX55,-0.3144

Source: PubChem BioAssay AID1159506 (NCATS, 2015).